Here are results for one molecule from article PMC10906865.

These are yes or no findings as the source states them, for the method shown.

The test has as its target T1, Lysozyme, P61626.
T1 chain: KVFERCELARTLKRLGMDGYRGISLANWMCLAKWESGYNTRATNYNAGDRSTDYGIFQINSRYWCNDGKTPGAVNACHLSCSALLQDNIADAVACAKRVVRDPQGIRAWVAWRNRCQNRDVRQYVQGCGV
In words: differential scanning calorimetry; peak height of the DSC thermogram of the pure protein compared with a DNA hairpin standard curve; ratio of the calorimetric concentration to the UV-Vis or dry-weight concentration read as stoichiometry; 150 mM NaCl, 10 mM potassium phosphate, 15 mM sodium citrate, pH 7.4; heating about 1°C/min; both purified. As to conditions: remark: other sources report otherwise. On the technique in general: DSC measures the heat that a sample takes up or gives off during a temperature scan.

B1: Lysozyme, P61626 19-148 (enzyme)
chain: KVFERCELARTLKRLGMDGYRGISLANWMCLAKWESGYNTRATNYNAGDRSTDYGIFQINSRYWCNDGKTPGAVNACHLSCSALLQDNIADAVACAKRVVRDPQGIRAWVAWRNRCQNRDVRQYVQGCGV
Turning to B1, the binding result was “no binding”.
